Screen size: about 400,000 compounds; about 5,500 (1.4%) were called active. Inconclusive means that the source gave no clear call. Such entries were picked first, then a sample of the others. The call rests on the fitted dose curve; in most records, active means well fitted cell-killing curve with a large enough effect; inconclusive means small, poorly fitted or top-dose-only effect, or effect the other way; inactive means flat fitted curve, though single readings scatter. Potencies beside an inconclusive call are fits to weak or partial responses and may not hold up.
Assay: qHTS assay for MDR1-selective chemotherapeutics: Primary screen using the parental adenocarcinoma cell KB-3-1; further: nearly all actives have a fitted effect of over 60% in size
Conditions: KB-3-1 viability, CellTiter-Glo ATP luminescence, 72 h; series mostly up to 46.1 µM
Outline: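 Parental KB-3-1 adenocarcinoma cells in phenol-red-free DMEM with 10% FBS were pin-treated with compounds at several concentrations, incubated 72 h at 37 °C, and viability read by CellTiter-Glo luminescence; concentration-effect curves were fitted after normalization.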
For `Cc1ccc(CN2CC(=O)N3[C@H]4c5cc(C)ccc5OC[C@@H]4[C@H](c4ccccc4)[C@]3(C)C2=O)cc1`, the Potency was inconclusive: 23.1 µM [cytotoxic, single point]. With `Cn1/c(=N/NC(=O)c2ccccc2Br)sc2ccccc21` the Potency was inconclusive: 0.0082 µM [rising, full curve, poor fit]. For `CC(O)[C@H]1CN=C(N)N1CCCCC1CCCCC1` (stereo partly drawn), the Potency was inconclusive: 23.1 µM [cytotoxic, single point]. In the case of `CCc1ccc2nc(NC(=O)c3ccc(N4C(=O)CCC4=O)cc3)sc2c1`, the Potency is reported as “inactive”. In the case of `CC(C)N1CCC(N2CCN(Cc3ccc(-c4ccc(Cl)cc4)o3)CC2CCO)CC1` (stereo not drawn), the Potency is reported as inconclusive: 29.1 µM [cytotoxic, partial curve, poor fit]. In the case of `CCOC(=O)c1cnn(-c2nc(-c3ccc(C)cc3)cs2)c1C(F)(F)F`, the Potency is reported as inconclusive: 25.9 µM [cytotoxic, single point]. With `COc1ccccc1N1CCN(S(=O)(=O)c2c(C)sc3ncn(CC(=O)N(C)c4ccc(Cl)cc4)c(=O)c23)CC1` the Potency was “inactive”. In the case of `CCOC(=O)N1CCN(C(=O)c2cnn3c(C(F)F)cc(-c4ccc(C)cc4)nc23)CC1`, the Potency is reported as inconclusive: 29.1 µM [cytotoxic, single point]. For `CCOc1cccc(/C=N/NC(=O)C2CCCC2)c1O`, the Potency was “inactive”. With `Oc1c(C(c2ccccc2F)N2CCN(Cc3ccccc3)CC2)sc2nc(-c3ccco3)nn12` (stereo not drawn) the Potency was “inactive”. In the case of `Cc1ccc(S(=O)(=O)N2CCN(CCc3ccccc3)CC2)c(C)c1`, the Potency is reported as “inactive”. In the case of `CN(CC(=O)Nc1ccccc1C(F)(F)F)C(=O)c1ccc(N2C(=O)CCC2=O)cc1`, the Potency is reported as “inactive”. For `CCOc1cc([N+](=O)[O-])c2nc(N)sc2c1`, the Potency was inconclusive: 23.1 µM [cytotoxic, single point]. With `Cc1ccc(-n2ncc3c(Nc4cccc(C)c4C)ncnc32)cc1` the Potency was “inactive”. For `Cc1[nH][nH]c(=O)c1N=Nc1ccc(Cl)cc1`, the Potency was inconclusive: 25.9 µM [cytotoxic, single point]. With `CCC(C)NS(=O)(=O)c1ccc(NC(=O)C(Sc2ccccc2)c2ccccc2)cc1` (stereo not drawn) the Potency was inconclusive: 29.1 µM [cytotoxic, single point]. For `CCC(C)[C@H]1CN=C(N)N1CC1CCCCC1` (stereo partly drawn), the Potency was inconclusive: 29.1 µM [cytotoxic, single point]. For `Cc1cccc(C(=O)OCC(=O)Nc2c(C)n(C)n(-c3ccccc3)c2=O)c1O`, the Potency was inconclusive: 29.1 µM [rising, single point]. In the case of `N#CCn1c(CCl)nc2ccccc2c1=O`, the Potency is reported as inconclusive: 29.1 µM [cytotoxic, partial curve, poor fit]. In the case of `Cc1ccc2nc(SCC(=O)Nc3ccc(F)cc3F)nc(=O)n2c1`, the Potency is reported as “inactive”. In the case of `COCCCNC(=S)NCCNc1nc2c(C)c(C)ccc2cc1C#N`, the Potency is reported as “inactive”. In the case of `COc1cc(CNCc2c[nH]c3ccccc23)cc(OC)c1`, the Potency is reported as “inactive”. With `Cc1ccccc1CN1CCC(CNc2ncnc3onc(-c4ccc(F)cc4)c23)CC1` the Potency was inconclusive: 29.1 µM [cytotoxic, single point]. With `COC(=O)[C@@H]1C[C@@H](c2ccccc2)[C@H](C)C1(C)C` the Potency was inconclusive: 20.6 µM [rising, single point]. In the case of `CCCn1c(O)c(N=Nc2ccc3ccccc3n2)c2ccccc21`, the Potency is reported as inconclusive: 9.2 µM [rising, partial curve]. In the case of `COC(=O)Cc1ccc(NC(=S)NCCSc2ccc(Cl)cc2)cc1`, the Potency is reported as “inactive”. In the case of `CCc1nc(N2CCN(C(=O)c3ccccc3)CC2)c2c3c(sc2n1)CCCC3`, the Potency is reported as inconclusive: 29.1 µM [cytotoxic, single point]. In the case of `CC(=O)Nc1ccc2nc(-c3cc(C)ccc3C)[nH]c2c1`, the Potency is reported as inconclusive: 20.6 µM [cytotoxic, partial curve, poor fit]. In the case of `Cc1ccc(OCc2ccc(-c3nc(C#N)c(NCc4cccnc4)o3)o2)cc1`, the Potency is reported as inconclusive: 23.1 µM [cytotoxic, single point]. In the case of `Cc1cccc(C2=NC(C(F)(F)F)(C(F)(F)F)c3c(n(-c4ccc(F)cc4)c(=O)[nH]c3=O)N2)c1`, the Potency is reported as inconclusive: 7.31 µM [cytotoxic, partial curve, poor fit]. In the case of `O=C(C1CCCN(Cc2ccccc2[N+](=O)[O-])C1)N1CCCCC1` (stereo not drawn), the Potency is reported as inconclusive: 2.91 µM [cytotoxic, partial curve, poor fit]. With `CC(OC(=O)c1ccccc1NCCO)C(=O)NC1CCCCC1C` (stereo not drawn) the Potency was “inactive”. With `Cc1ccc(CNC(=O)COc2ccc(C(=O)c3ccc(F)cc3)cc2)cc1` the Potency was inconclusive: 29.1 µM [cytotoxic, single point]. For `Cc1cc(C)c(C(=O)N2CCCC(N3CCN(c4cccc(C(F)(F)F)c4)CC3)C2)o1` (stereo not drawn), the Potency was inconclusive: 20.6 µM [cytotoxic, single point]. With `NC(=O)c1c(NC(=O)CN2C(=O)NC(Cc3ccccc3)C2=O)sc2c1CCC2` (stereo not drawn) the Potency was inconclusive: 25.9 µM [rising, single point]. For `CSc1nnc(COc2ccc(C)cc2)n1N`, the Potency was “inactive”. For `Cc1ccc(Cl)cc1N1CCN(C(=O)Cn2cnc3sc(C)c(S(=O)(=O)N4CCC(C)CC4)c3c2=O)CC1`, the Potency was inconclusive: 16.4 µM [cytotoxic, partial curve, poor fit]. For `O=C(O)c1ccc2c(c1)OCCO2`, the Potency was “inactive”. For `Cc1ccc2c(c1)c1c(n2CC(O)Cn2c(C)nc3ccccc32)/C(=N\O)CCC1` (stereo not drawn), the Potency was inconclusive: 20.6 µM [cytotoxic, single point]. In the case of `CCn1c2ccccc2c2cc(/C=N/NC(=O)c3cccc(C)c3)ccc21`, the Potency is reported as inconclusive: 16.4 µM [cytotoxic, single point]. In the case of `Cc1ccccc1C(=O)N1CCC(C(=O)Nc2cccc(S(=O)(=O)N3CCCCC3)c2)CC1`, the Potency is reported as inconclusive: 7.31 µM [cytotoxic, partial curve]. In the case of `CC(C)COC(=O)n1c(=O)oc2cc(S(=O)(=O)N3CCCCC3)ccc21`, the Potency is reported as inconclusive: 23.1 µM [cytotoxic, single point]. For `CC1CCN(S(=O)(=O)c2cccc(C(=O)N3CCN(c4ccc(F)cc4)CC3)c2)CC1`, the Potency was inconclusive: 23.1 µM [cytotoxic, partial curve, poor fit].

— PubChem BioAssay AID1347075 (National Center for Advancing Translational Sciences (NCATS), 2019)
Potency means the concentration at half of the fitted maximal effect.
